This assay is described as follows: qHTS Assay for Lipid Storage Modulators in Drosophila S3 Cells.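 As to cell number change: cells counted by Cell Tracker Red CMTPX staining in the red channel.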 Conditions: BODIPY lipid droplet fluorescence, 18-24 h; for cell number change: measured here: cell count max response, cells fed with added oleic acid. In a few lines:
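Laser-scanning cytometry quantifies lipid droplet accumulation (500–530 nm total intensity; droplet/cell object ratio) in oleic acid-fed (400 uM added) Drosophila S3 cells treated with a concentration series. 20 uM Triacsin C defined 100% inhibition.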
On the technique in general: qHTS replaces the single test concentration by a dilution series.

The mark [1] stands for this setting: measured here: lipid fluorescence (Fed channel) AC50, cells fed with added oleic acid.
Where [2] appears, read: measured here: cell number channel AC50, cells fed with added oleic acid.

38 compounds from PubChem BioAssay AID2685 (National Center for Advancing Translational Sciences (NCATS), 2010) can be followed below.

The structures appear in SMILES notation. Several values for one entry are separate records, joined by “and”; a condition that tells them apart may be missing. Equal entries are not always repeated. The list shows a part of the results. Shown are side measurements of this screen, not its main read-out; they come without a call. Most of these compounds were active or inconclusive in the main read-out, so they are no random draw. Words in brackets tell the shape of the fitted curve; partial curves, single points and poor fits give uncertain potencies.

One may read the AC50 as the concentration giving half of the maximal activity seen. Read a high AC50 as activity only at high concentration. In the case of `C=CCN1CC[C@]23c4c5ccc(O)c4O[C@H]2C(=O)CC[C@@]3(O)[C@H]1C5`, the cell number change is -11.8%. Moreover, under setting [1], the AC50 was 25.9 µM [falling, single point].

Turning to `COC(=O)C1=C(c2ccc(OC)c(OC)c2)C[C@@H]2CC[C@H]1N2C(=O)NCC1CC1`, the cell number change was 15%. Further, the AC50 under setting [2] is 4.11 µM [falling, partial curve]. For the same compound, the AC50 under setting [1] was 4.11 µM [falling, single point].

For `Cc1cc(C)cc(-n2c(O)c(C=Nc3ccc(N4CCOCC4)cc3)c(=O)[nH]c2=S)c1`, the cell number change was -41.1%. Also, the AC50 under setting [2] is 0.651 µM [falling, full curve]. Besides, under setting [1], the AC50 is 3.66 µM [rising, full curve, poor fit].

As for `CCC(=O)CC(c1ccc([N+](=O)[O-])cc1)c1c(O)c2ccccc2oc1=O` (centres undefined), the cell number change is 162%. In addition, the AC50 under setting [2] was 18.4 µM [rising, single point]. Besides, under setting [1], the AC50 was 29.1 µM [rising, single point].

For the compound `c1ccc(CCNCc2cccnc2)cc1`, the cell number change stood at 0.351%. Also, under setting [1], the AC50 was 16.4 µM [rising, single point].

Take `CCOP(=S)(OCC)Oc1cc(C)oc(=O)c1`: the cell number change stood at 27.2%. For the same compound, under setting [1], the AC50 is 0.411 µM [rising, partial curve, poor fit].

For the compound `Cc1ccsc1/C=C1\C(=O)NC(=S)N(C)C1=O`, the cell number change is -23.4%. Also, the AC50 under setting [1] is 18.4 µM [falling, single point].

Consider `CC(C)OC(=O)c1c(N)n(CC2CCCO2)c2nc3ccccc3nc12` (centres undefined), for which the AC50 under setting [2] was 3.26 µM [rising, partial curve].

With `CCc1ccc(CNCCc2c[nH]c3ccccc23)cc1`, the cell number change was 28.8%.

In the case of `C[C@]12CC[C@H](O)C[C@@H]1CC[C@@H]1[C@@H]2CC[C@]2(C)[C@@H](C(=O)O)C[C@@H]12`, the cell number change came out at 7.39%.

In the case of `CC12CC3CC(C)(C1)CC(N)(C3)C2`, the cell number change was -2.91% and 1.39%. Also, under setting [1], the AC50 was 6.51 µM [falling, single point] and 731 nM [falling, single point].

In the case of `COc1ccc(OC)c(CN2CCN(C(=O)COc3cccc(C)c3)CC2)c1`, the cell number change was -23.4%.

In the case of `CCOC(=O)c1c(C)n(Cc2ccc3c(c2)OCO3)c2ccc(O)cc12`, the cell number change was found to be 15.6%.

For the compound `COc1ccc2c(c1)CC1(CN2C)C(=O)NC(=O)N(c2ccc(C)cc2)C1=O` (centres undefined), the cell number change stood at 6.14%. The AC50 under setting [2] was 0.13 µM [falling, full curve, poor fit].

Take `CCCCCCn1c(=O)c(C(=O)Nc2ncccc2O)c(O)c2ccccc21`: under setting [1], the AC50 was 9.2 µM [falling, single point].

With `O=c1c2ccccc2nc(-c2cccs2)n1-c1ccccc1`, under setting [1], the AC50 was 29.1 µM [rising, single point].

As to `COc1cccc(N2CCN(C(=O)C3CCN(S(=O)(=O)c4ccc5c(c4)oc(=O)n5C)CC3)CC2)c1`, the AC50 under setting [2] is 29.1 µM [falling, single point].

For the compound `CCOC(=O)c1cc(C)n(CCc2cnc[nH]2)c1C`, the cell number change was -1.68%. Besides, the AC50 under setting [1] was 20.6 µM [falling, partial curve, poor fit].

In the case of `Cc1sc2ncn(CC(=O)N3CCC4(CC3)OCCO4)c(=O)c2c1C`, the cell number change amounted to 0.271%. Besides, under setting [1], the AC50 was 16.4 µM [rising, single point].

In the case of `CC(=O)c1cn(Cc2ccccc2F)c2ccccc12`, the cell number change is -33.3%. The AC50 under setting [2] was 4.61 µM [falling, partial curve, poor fit]. Further, the AC50 under setting [1] is 0.0326 µM [falling, full curve, poor fit].

On to `Cc1cc(C=O)c(C)n1CC1CCCO1` (centres undefined), for which the cell number change was -10.8%. For the same compound, under setting [1], the half-maximal activity concentration (AC50) was 0.58 µM [falling, partial curve, poor fit].

On to `Cc1ccc(N)c(C(=O)c2ccc(Br)cc2)c1`, for which the cell number change is -56%. For the same compound, the AC50 under setting [2] is 29.1 µM [falling, single point]. The AC50 under setting [1] was 29.1 µM [falling, single point].

On to `O=c1cc(CN2CCNCC2)nc2sccn12`, for which the cell number change was -32.6%. In addition, under setting [2], the concentration at half-maximal activity (AC50) is 0.58 µM [falling, full curve, poor fit].

Regarding `Fc1cccc(CNCCc2c[nH]c3ccccc23)c1`, the cell number change was -24.7%.

`CCC(=O)OC1(Cc2ccc(CC)cc2)CC(C)N(C)CC1C` (centres undefined): the cell number change was -21.3%. For the same compound, under setting [2], the AC50 was 0.103 µM [falling, full curve, poor fit]. For the same compound, the AC50 under setting [1] is 0.58 µM [falling, full curve].

On to `CC(C)(C)NC(=O)NC(=O)CN1CC=C(c2ccccc2)CC1`, for which the cell number change was 22.4%. The AC50 under setting [1] is 32.6 µM [rising, single point].

On to `O=C1NC(=O)N(c2ccc3c(c2)OCO3)C(=O)/C1=C\c1ccc(-c2ccccc2C(=O)O)o1`, for which the cell number change was -52.7%. Further, the AC50 under setting [2] was 8.2 µM [falling, partial curve]. For the same compound, the AC50 under setting [1] was 20.6 µM [falling, partial curve].

As to `CCCCn1c(O)c(C(CC)=NCc2cc(OC)cc(OC)c2)c(=O)[nH]c1=O`, the cell number change turned out to be 14.9%. The AC50 under setting [1] was 29.1 µM [rising, single point].

Turning to `O=c1[nH]sc2cc(F)ccc12`, the cell number change is -80.2%. Further, under setting [2], the AC50 was 29.1 µM [falling, partial curve, poor fit]. For the same compound, the AC50 under setting [1] was 29.1 µM [falling, single point].

Consider `C(#CCN1CCCC1)CN1CCCC1`, for which the cell number change is 2.97%.

Turning to `CCCSc1nc(O)c(CC)c(=O)n1C(C)CC` (centres undefined), the cell number change is -2.84%. Moreover, the AC50 under setting [1] is 18.4 µM [falling, partial curve, poor fit].

`COc1ccc(C2=NCC(=O)N(CC(=O)NCc3ccco3)c3sc4c(c32)CCCC4)cc1OC`: the cell number change was -7.78%. For the same compound, under setting [2], the AC50 is 6.51 µM [rising, single point]. The AC50 under setting [1] was 23.1 µM [falling, single point].

Take `CN(C)C(=O)Oc1ccc2oc(=O)cc(-c3cc4ccccc4o3)c2c1`: the cell number change came to 24.2%. Under setting [1], the AC50 is 0.092 µM [falling, full curve, poor fit].

For the compound `CCC(=NCc1cccnc1)c1c(O)n(Cc2ccccc2)c(=O)[nH]c1=O`, the cell number change was -28.8%.

Regarding `CCOP(=O)(OCC)C1(O)C(=O)Nc2ccccc21` (centres undefined), the cell number change is -17.5%. For the same compound, under setting [2], the AC50 is 0.651 µM [rising, full curve]. The AC50 under setting [1] was 1.3 µM [rising, partial curve].

Regarding `CN(C)c1ccc(NC(=O)CN2C(=O)CN=C(c3ccccc3)c3ccccc32)cc1`, the AC50 under setting [1] is 1.84 µM [falling, partial curve, poor fit].

For `O=S(=O)(c1ccc(Cl)cc1)N1CCCCC1c1cccnc1` (centres undefined), the cell number change was determined as 26.7%. The AC50 under setting [2] was 2.31 µM [rising, partial curve, poor fit].

`COC(=O)C1=C(c2ccc3ccccc3c2)C[C@@H]2CC[C@H]1N2C(=O)N1CCC(O)CC1`: the cell number change was found to be 0.481%. Moreover, under setting [1], the AC50 is 0.58 µM [rising, single point].
